From paper PMC10834545
Results are given in words; binding and its absence hold for the method and conditions named. In cells and extracts the contact can be indirect. Some entries that bind do so weakly or less than the wild type. Sequences can lack the tags named with a protein.

Protein sequences, listed by entry. Tags and fused reporters are not part of them.
UniProt P01106: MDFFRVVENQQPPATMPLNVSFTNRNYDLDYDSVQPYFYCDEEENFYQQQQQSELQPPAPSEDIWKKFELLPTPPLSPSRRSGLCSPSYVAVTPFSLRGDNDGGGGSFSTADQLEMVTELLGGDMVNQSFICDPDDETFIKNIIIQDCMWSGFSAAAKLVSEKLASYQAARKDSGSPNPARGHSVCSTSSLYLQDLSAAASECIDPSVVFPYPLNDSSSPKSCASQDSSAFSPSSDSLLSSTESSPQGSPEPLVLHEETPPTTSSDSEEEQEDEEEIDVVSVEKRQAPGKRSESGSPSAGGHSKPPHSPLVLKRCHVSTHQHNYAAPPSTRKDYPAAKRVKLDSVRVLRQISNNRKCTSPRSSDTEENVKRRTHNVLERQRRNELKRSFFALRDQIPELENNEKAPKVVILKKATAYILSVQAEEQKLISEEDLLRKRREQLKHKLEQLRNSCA

T1: Flag-FSTL3-(189–245aa) deletion (human) (UniProt O95633)
T1 sequence: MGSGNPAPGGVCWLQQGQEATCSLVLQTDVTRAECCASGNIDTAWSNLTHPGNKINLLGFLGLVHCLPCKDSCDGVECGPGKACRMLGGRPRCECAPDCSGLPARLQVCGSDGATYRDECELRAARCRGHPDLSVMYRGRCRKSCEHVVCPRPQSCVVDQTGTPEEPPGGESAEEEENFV

T2: Flag-FSTL3 full-length (human) (UniProt O95633)
T2 sequence: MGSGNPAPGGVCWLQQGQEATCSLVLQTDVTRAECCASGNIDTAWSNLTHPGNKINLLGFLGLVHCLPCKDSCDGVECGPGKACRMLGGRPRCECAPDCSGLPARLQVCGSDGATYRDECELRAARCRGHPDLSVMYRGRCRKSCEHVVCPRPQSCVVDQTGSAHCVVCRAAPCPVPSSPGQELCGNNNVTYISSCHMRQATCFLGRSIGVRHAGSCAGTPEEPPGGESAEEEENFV

T3: Flag-tagged follistatin-like 3 (FSTL3), overexpressed from lentivirus in FSTL3-OE HCT116 cells (UniProt O95633)
T3 sequence: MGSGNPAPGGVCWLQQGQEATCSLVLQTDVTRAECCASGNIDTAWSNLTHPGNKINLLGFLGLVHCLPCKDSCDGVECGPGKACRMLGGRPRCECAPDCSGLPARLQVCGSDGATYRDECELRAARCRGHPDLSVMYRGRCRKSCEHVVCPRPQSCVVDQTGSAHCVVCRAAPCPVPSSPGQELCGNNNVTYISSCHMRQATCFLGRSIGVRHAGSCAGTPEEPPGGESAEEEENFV


Tests used:
[1] = biological target: T1, Flag-FSTL3-(189–245aa) deletion (human); test: co-IP; HCT116 cells transfected with plasmids of Flag-FSTL3 full-length or deletion constructs; IP with anti-Flag antibody, western blotting
[2] = biological target: T2, Flag-FSTL3 full-length (human); test: as above
[3] = biological target: T3, Flag-tagged follistatin-like 3 (FSTL3), overexpressed from lentivirus in FSTL3-OE HCT116 cells; test: co-IP; lysate (NP-40 lysis buffer) of FSTL3-OE HCT116 cells; IP with anti-Flag or anti-c-Myc antibody at 4 °C overnight, protein A/G magnetic beads, western blotting
[4] = biological target: HA-c-Myc full-length (human) (UniProt P01106); test: co-IP; HCT116 cells transfected with plasmids of HA-c-Myc full-length or deletion constructs; IP with anti-HA antibody, western blotting

| binding [1] | binding [2] | binding [3] | binding [4] | Molecule |
| --- | --- | --- | --- | --- |
| binds | binds | binds | – | MYC proto-oncogene, bHLH transcription factor (c-Myc), endogenous in HCT116 cells (from UniProt P01106 1-454) |
| – | – | – | binds | FSTL3 protein found with HA-c-Myc constructs in HCT116 cells (protein, UniProt O95633 27-263) MGSGNPAPGGVCWLQQGQEATCSLVLQTDVTRAECCASGNIDTAWSNLTHPGNKINLLGFLGLVHCLPCKDSCDGVECGPGKACRMLGGRPRCECAPDCSGLPARLQVCGSDGATYRDECELRAARCRGHPDLSVMYRGRCRKSCEHVVCPRPQSCVVDQTGSAHCVVCRAAPCPVPSSPGQELCGNNNVTYISSCHMRQATCFLGRSIGVRHAGSCAGTPEEPPGGESAEEEENFV |
